For assay [1], the target named is Hs mt-AlaRS (residues 31-C) (human) (UniProt Q5JTZ9). Put plainly: SEC; size exclusion chromatography experiments; conditions not told for this experiment; both purified. In general terms: SEC sorts molecules by how far they enter the pores of the column.
Assay [2] addresses Hs mt C-Ala (783-985) (human) (UniProt Q5JTZ9). Kind of assay: crystal structure; crystal structure analysis of mt C-Ala (constructs 873-C, 802-C, 783-C); no dimer as in prokaryotic AlaRSs; both purified.

These are yes or no findings as the source states them, for the method shown.

Consider 2 molecules from PMC7033119.

B1: Hs mt-AlaRS (residues 31-C) (enzyme, UniProt Q5JTZ9 31-985)
chain: SSEPPAAKASAVRAAFLNFFRDRHGHRLVPSASVRPRGDPSLLFVNAGMNQFKPIFLGTVDPRSEMAGFRRVANSQKCVRAGGHHNDLEDVGRDLSHHTFFEMLGNWAFGGEYFKEEACNMAWELLTQVYGIPEERLWISYFDGDPKAGLDPDLETRDIWLSLGVPASRVLSFGPQENFWEMGDTGPCGPCTEIHYDLAGGVGAPQLVELWNLVFMQHNREADGSLQPLPQRHVDTGMGLERLVAVLQGKHSTYDTDLFSPLLNAIQQGCRAPPYLGRVGVADEGRTDTAYRVVADHIRTLSVCISDGIFPGMSGPPLVLRRILRRAVRFSMEILKAPPGFLGSLVPVVVETLGDAYPELQRNSAQIANLVSEDEAAFLASLERGRRIIDRTLRTLGPSDMFPAEVAWSLSLCGDLGLPLDMVELMLEEKGVQLDSAGLERLAQEEAQHRARQAEPVQKQGLWLDVHALGELQRQGVPPTDDSPKYNYSLRPSGSYEFGTCEAQVLQLYTEDGTAVASVGKGQRCGLLLDRTNFYAEQGGQASDRGYLVRAGQEDVLFPVARAQVCGGFILHEAVAPECLRLGDQVQLHVDEAWRLGCMAKHTATHLLNWALRQTLGPGTEQQGSHLNPEQLRLDVTTQTPLTPEQLRAVENTVQEAVGQDEAVYMEEVPLALTAQVPGLRSLDEVYPDPVRVVSVGVPVAHALDPASQAALQTSVELCCGTHLLRTGAVGDLVIIGDRQLSKGTTRLLAVTGEQAQQARELGQSLAQEVKAATERLSLGSRDVAEALRLSKDIGRLIEAVETAVMPQWQRRELLATVKMLQRRANTAIRKLQMGQAAKKTQELLERHSKGPLIVDTVSAESLSVLVKVVRQLCEQAPSTSVLLLSPQPMGKVLCACQVAQGAMPTFTAEAWALAVCSHMGGKAWGSRVVAQGTGSTTDLEAALSIAQTYALSQL
Turning to B1, the binding entry in assay [1] is recorded as “no binding”.

B2: Hs mt C-Ala (783-985) (domain or fragment, UniProt Q5JTZ9 783-985)
chain: GEQAQQARELGQSLAQEVKAATERLSLGSRDVAEALRLSKDIGRLIEAVETAVMPQWQRRELLATVKMLQRRANTAIRKLQMGQAAKKTQELLERHSKGPLIVDTVSAESLSVLVKVVRQLCEQAPSTSVLLLSPQPMGKVLCACQVAQGAMPTFTAEAWALAVCSHMGGKAWGSRVVAQGTGSTTDLEAALSIAQTYALSQL
Consider B2, for which, in assay [2], the binding entry is given as “no binding”.
